Results from paper doi:10.1101/2024.08.06.606634.
Results are given in words; binding and its absence hold for the method and conditions named. Binding seen in cells or lysates may run through a third protein. Binding calls can cover weak binding; strength is not graded here.

Target: T1, βA3/A1-crystallin (endogenous, mouse RPE) (mouse (endogenous in mouse RPE)) (UniProt P02525)
T1 sequence: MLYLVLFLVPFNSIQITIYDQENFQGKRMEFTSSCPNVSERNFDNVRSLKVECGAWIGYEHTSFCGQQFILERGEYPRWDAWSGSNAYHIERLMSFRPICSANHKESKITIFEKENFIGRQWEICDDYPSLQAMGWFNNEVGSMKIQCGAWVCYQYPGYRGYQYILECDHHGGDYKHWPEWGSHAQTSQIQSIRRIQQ
Assay: co-IP

binding: binds
Substance: casein kinase II (CK2) (endogenous, mouse RPE) (enzyme)
